Results reported in publication PMC8610377, “Target identification for small-molecule discovery in the FOXO3a tumor-suppressor pathway using a biodiverse peptide library” (Cell Chemical Biology, 2021).
Results are given in words; binding and its absence hold for the method and conditions named. A result given as binding can be weak or reduced; the word gives no strength. For some of these results: Tags and fused reporters may be left off the sequences shown. For some of these results: Binding seen in cells or lysates may run through a third protein. Blank lines part the entries; values can stand above or below the molecule they belong to.

Tests used:
[1] = target: T1, TAMRA-9J10Min peptide (5-TAMRA-GRRRN(p-Serine)N-acid) (Streptomyces avermitilis); assay: fluorescence polarisation; competition: unlabelled 9J10 peptide titrated against 10 nM TAMRA-p9J10Min bound to 1.5 μM His-14-3-3ε; 10 mM HEPES, 150 mM NaCl, 0.05% Tween; both purified
T1 sequence (peptide, 5-TAMRA on the N-terminus; phosphoserine at 6 (Ser94 of 9J10); C-terminal acid): GRRRNSN

[2] = target: 6x His-14-3-3ε (full length human 14-3-3ε) (human); assay: STD-NMR; 100 μM 9J10 peptide and 10 μM 14-3-3ε in D2O, 298 K; also with 2% DMSO or CU7218; both purified
[3] = target: FLAG-tagged 14-3-3ε (human)
[4] = target: C-terminally truncated 14-3-3ε (amino acids 1-232) (human); assay: crystal structure; 14-3-3ε (1-232) incubated with TAMRA-9J10 peptide at 1:2; 28% PEG 400, 0.1 M Hepes pH 7.5, 0.2 M calcium chloride; 3.16 Å; both purified

binding [1]: binds
Molecule: 6x His-14-3-3ε (full length human 14-3-3ε)

binding [2]: binds
Molecule: LNRTPGRRRNSN (phosphoserine at 11 (Ser94 of 9J10); C-terminal acid) [Unlabelled 9J10 peptide (…(p-Serine)N-acid)]

binding [3]: binds
B1: 14-3-3γ (endogenous) (protein, UniProt P61981 1-247)
chain: MVDREQLVQKARLAEQAERYDDMAAAMKNVTELNEPLSNEERNLLSVAYKNVVGARRSSWRVISSIEQKTSADGNEKKIEMVRAYREKIEKELEAVCQDVLSLLDNYLIKNCSETQYESKVFYLKMKGDYYRYLAEVATGEKRATVVESSEKAYSEAHEISKEHMQPTHPIRLGLALNYSVFYYEIQNAPEQACHLAKTAFDDAIAELDTLNEDSYKDSTLIMQLLRDNLTLWTSDQQDDDGGEGNN

Molecule: LNRTPGRRRNSN (5-TAMRA on the N-terminus; phosphoserine at 11 (Ser94 of 9J10); C-terminal acid) [TAMRA-9J10 peptide (5-TAMRA-…(p-Serine)N-acid)]
binding [4]: binds
